This test addresses T1, CEP44-Flag (siRNA-resistant CEP44 cDNA, tetracycline-inducible, in RPE1 cells) (human) (UniProt Q9C0F1).
T1 sequence: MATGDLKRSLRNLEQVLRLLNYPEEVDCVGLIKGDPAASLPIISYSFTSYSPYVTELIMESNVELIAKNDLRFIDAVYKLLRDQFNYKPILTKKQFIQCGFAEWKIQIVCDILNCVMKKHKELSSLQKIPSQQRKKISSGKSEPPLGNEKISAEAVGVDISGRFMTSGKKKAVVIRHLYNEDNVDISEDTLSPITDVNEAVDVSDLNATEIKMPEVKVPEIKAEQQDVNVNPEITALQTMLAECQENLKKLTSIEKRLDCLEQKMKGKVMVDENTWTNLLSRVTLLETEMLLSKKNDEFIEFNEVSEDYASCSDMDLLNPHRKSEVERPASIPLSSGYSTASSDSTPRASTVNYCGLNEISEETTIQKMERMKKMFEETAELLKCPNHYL
Nature of the test: co-IP; Anti-FLAG M2 beads; lysate of 3 x 10^6 RPE1 cells expressing CEP44-Flag constructs; lysis in 250 mM NaCl, 10 mM Tris-Cl, 0.5 mM EDTA, 0.5% NP-40, Benzonase, pH 7.5; 2.5 h at 4 °C; washes with 150 mM NaCl, 10 mM Tris-Cl pH 7.5; immunoblot.

The chains behind the UniProt entries cited, without tags or fusion partners.
UniProt Q9C0D2: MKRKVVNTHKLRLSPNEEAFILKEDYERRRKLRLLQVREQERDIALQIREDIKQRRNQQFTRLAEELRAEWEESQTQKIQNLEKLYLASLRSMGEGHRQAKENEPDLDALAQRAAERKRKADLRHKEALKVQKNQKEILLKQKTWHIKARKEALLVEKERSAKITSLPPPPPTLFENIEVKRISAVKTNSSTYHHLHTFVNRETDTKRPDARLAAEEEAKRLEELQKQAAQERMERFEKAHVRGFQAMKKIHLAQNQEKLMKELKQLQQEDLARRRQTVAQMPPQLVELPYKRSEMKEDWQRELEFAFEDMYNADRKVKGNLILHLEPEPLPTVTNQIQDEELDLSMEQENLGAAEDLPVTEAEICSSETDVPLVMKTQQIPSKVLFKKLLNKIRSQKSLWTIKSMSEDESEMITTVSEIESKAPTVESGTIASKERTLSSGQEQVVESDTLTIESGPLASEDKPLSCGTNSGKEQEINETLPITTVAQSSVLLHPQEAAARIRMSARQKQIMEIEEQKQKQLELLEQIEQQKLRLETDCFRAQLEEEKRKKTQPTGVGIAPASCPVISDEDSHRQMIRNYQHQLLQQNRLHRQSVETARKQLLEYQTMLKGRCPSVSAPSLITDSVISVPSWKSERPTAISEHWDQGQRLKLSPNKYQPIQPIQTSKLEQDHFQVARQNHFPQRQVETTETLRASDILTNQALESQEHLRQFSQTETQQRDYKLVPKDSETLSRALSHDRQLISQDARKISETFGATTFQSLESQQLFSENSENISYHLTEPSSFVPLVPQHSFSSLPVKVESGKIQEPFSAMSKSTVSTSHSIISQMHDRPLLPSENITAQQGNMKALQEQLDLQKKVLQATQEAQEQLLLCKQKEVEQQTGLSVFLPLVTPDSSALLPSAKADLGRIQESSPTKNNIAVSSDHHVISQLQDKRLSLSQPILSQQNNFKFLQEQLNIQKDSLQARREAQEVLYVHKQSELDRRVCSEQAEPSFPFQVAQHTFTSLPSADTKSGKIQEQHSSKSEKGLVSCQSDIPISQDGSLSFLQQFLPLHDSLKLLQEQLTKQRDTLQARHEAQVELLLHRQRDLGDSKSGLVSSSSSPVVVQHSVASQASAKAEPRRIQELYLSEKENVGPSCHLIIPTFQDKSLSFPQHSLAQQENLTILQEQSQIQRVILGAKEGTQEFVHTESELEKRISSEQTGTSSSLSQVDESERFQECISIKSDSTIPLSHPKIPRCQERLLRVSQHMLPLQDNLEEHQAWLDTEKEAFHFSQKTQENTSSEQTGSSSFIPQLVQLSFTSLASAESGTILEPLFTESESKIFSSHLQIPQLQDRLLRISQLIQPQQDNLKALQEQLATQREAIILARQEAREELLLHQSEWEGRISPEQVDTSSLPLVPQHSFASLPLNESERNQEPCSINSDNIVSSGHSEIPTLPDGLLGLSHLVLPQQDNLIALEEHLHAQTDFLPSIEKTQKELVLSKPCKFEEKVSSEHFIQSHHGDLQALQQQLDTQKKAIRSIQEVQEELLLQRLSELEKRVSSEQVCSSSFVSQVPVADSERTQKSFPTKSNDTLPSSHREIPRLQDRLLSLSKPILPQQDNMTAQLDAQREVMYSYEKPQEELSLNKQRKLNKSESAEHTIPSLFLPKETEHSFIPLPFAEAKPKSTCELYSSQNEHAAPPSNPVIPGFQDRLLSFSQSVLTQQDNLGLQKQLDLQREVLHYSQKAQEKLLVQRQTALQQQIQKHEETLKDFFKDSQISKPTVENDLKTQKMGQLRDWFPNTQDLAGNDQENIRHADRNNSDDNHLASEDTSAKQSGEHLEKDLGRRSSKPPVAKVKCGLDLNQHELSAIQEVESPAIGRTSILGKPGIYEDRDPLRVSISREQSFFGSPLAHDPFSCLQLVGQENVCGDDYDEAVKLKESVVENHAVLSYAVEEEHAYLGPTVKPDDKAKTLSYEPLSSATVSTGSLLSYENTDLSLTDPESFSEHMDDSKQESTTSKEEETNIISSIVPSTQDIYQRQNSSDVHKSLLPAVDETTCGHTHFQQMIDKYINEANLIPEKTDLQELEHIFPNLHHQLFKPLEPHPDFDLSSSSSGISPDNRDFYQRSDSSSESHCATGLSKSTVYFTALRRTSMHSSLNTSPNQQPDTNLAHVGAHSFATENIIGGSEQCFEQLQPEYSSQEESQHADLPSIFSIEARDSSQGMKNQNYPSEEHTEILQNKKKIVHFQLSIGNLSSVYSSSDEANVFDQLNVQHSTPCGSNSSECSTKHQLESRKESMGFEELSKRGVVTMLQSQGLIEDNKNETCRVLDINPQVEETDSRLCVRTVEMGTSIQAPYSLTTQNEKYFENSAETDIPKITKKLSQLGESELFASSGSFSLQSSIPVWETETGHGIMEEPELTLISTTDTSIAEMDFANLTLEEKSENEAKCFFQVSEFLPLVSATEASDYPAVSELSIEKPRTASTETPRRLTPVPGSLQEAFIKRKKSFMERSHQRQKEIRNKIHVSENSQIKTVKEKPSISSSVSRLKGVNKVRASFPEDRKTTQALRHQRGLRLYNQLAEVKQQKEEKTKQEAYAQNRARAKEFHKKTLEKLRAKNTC

Results are given in words; binding and its absence hold for the method and conditions named. In cells and extracts the contact can be indirect. Where a sequence is shown, tags or fusion partners need not be part of it.

Regarding “CEP295 (endogenous, RPE1 cells) (from UniProt Q9C0D2 1-2601)”, the binding entry is on record as “no binding”.

The values above are taken from publication PMC7021698.
